PubChem BioAssay AID602196 | INSERM | 2012
This is a random part of about 23,000 reagents. 455 of all reagents (2%) count as active. 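Active includes both protection and sensitisation; some change values fall well beyond the stated -50 to +50 range.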 Unmarked entries are inactive. Not all columns of the deposit are shown. The record does not give: the amount of reagent.

Assay: 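Genes whose knock-down alters cisplatin killing of lung cancer cells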
Cells: human A549 lung cancer cells
Knock-down reagent: siRNA pair against human genes
Timing: 48 h transfection before cisplatin; time from cisplatin to read-out not stated
Treatment: cisplatin at a dose killing half of control-siRNA cells; exact dose and duration not given
Measurement: 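Shift in cisplatin death relative to control siRNA, from -50 (all cells die) to +50 (no cells die); siRNAs harmful on their own scored 0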
Reading the numbers: two-siRNA summed score (-2 to +2): higher = both siRNAs protect from cisplatin killing; -2 means both sensitise; mean protection from cisplatin (shift in death): higher = protection from cisplatin killing
Active means: 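siRNAs harmful alone (LDH or WST-1) get 0; others get +1 for less and -1 for more cisplatin killing; genes are active when the two siRNAs give the same sign, summing to ±2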
Meaning of the calls: active = both siRNAs shift cisplatin killing the same way; inactive = no consistent shift, or siRNA harmful alone

After knock-down of ZNF551, the screen gave two-siRNA summed score (-2 to +2) = 0; mean protection from cisplatin (shift in death) (%) = 3.5.
For EGF, the values are two-siRNA summed score (-2 to +2) = 0; mean protection from cisplatin (shift in death) (%) = 14.2.
For LOC389899, the values are two-siRNA summed score (-2 to +2) = 1; mean protection from cisplatin (shift in death) (%) = 20.1.
Silencing of LOC161823 came out at: two-siRNA summed score (-2 to +2) = 1; mean protection from cisplatin (shift in death) (%) = -0.8.
With knock-down of SFTPB, the record shows two-siRNA summed score (-2 to +2) = 0; mean protection from cisplatin (shift in death) (%) = 16.8.
GATD3 showed two-siRNA summed score (-2 to +2) = 0; mean protection from cisplatin (shift in death) (%) = -8.2.
For LOC390218, the values are two-siRNA summed score (-2 to +2) = 0; mean protection from cisplatin (shift in death) (%) = 11.8.
Silencing of INTS15 resulted in: two-siRNA summed score (-2 to +2) = 0; mean protection from cisplatin (shift in death) (%) = -3.8.
Depletion of PSMA3-AS1 gave: two-siRNA summed score (-2 to +2) = 0; mean protection from cisplatin (shift in death) (%) = 15.1.
Knock-down of SPATA17 resulted in: two-siRNA summed score (-2 to +2) = 0; mean protection from cisplatin (shift in death) (%) = -0.5.
TUBB1 scored two-siRNA summed score (-2 to +2) = 0; mean protection from cisplatin (shift in death) (%) = 1.2.
Against CLSPN the deposit lists two-siRNA summed score (-2 to +2) = 0; mean protection from cisplatin (shift in death) (%) = 6.3.

Entries listed so far whose gene name starts with S or s:
SFTPB: two-siRNA summed score (-2 to +2) = 0; mean protection from cisplatin (shift in death) (%) = 16.8
SPATA17: two-siRNA summed score (-2 to +2) = 0; mean protection from cisplatin (shift in death) (%) = -0.5
